Measurements reported in PubChem BioAssay AID602196 (INSERM, 2012).

- Assay: 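Knock-downs that protect lung cancer cells from cisplatin or sensitise them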
- Cells: human A549 lung cancer cells
- Knock-down reagent: siRNA pair against human genes
- Timing: 48 h transfection before cisplatin; time from cisplatin to read-out not stated
- Treatment: cisplatin at a dose killing half of control-siRNA cells; exact dose and duration not given
- Measurement: 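Cisplatin cell death as a shift from the 50% death seen with control siRNA; siRNAs toxic or growth-blocking alone scored 0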
- Reading the numbers: two-siRNA summed score (-2 to +2): higher = both siRNAs protect from cisplatin killing; -2 means both sensitise; mean protection from cisplatin (shift in death) and protection from cisplatin (shift in death), siRNA C and protection from cisplatin (shift in death), siRNA D: higher = protection from cisplatin killing
- Hit rule: 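Each siRNA scores 0 if harmful alone by LDH or WST-1, otherwise +1 if it reduces and -1 if it increases cisplatin killing; a gene is active when both siRNAs agree (sum +2 or -2)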
- Calls: active = both siRNAs shift cisplatin killing the same way; inactive = no consistent shift, or siRNA harmful alone
This is an unselected part of about 23,000 reagents. Over the whole deposit, 455 (2%) got an active call. 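Active includes both protection and sensitisation; some change values fall well beyond the stated -50 to +50 range.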 A number with no mark means an inactive call. The record does not give: the amount of reagent.

no.	target gene	PubChem SID	two-siRNA summed score (-2 to +2)	mean protection from cisplatin (shift in death) (%)	protection from cisplatin (shift in death), siRNA C (%)	protection from cisplatin (shift in death), siRNA D (%)
1	ARHGAP21	SID131508267	0	0.8	0.3	1.4
2	TLN1	SID131507254	0	-0.4	-9.4	8.7
3	CAPN1	SID131500951	-1	-13.9	-28.3	0.5
4	ITGA7	SID131500297	-2 (active)	-33.5	-23.6	-43.5
5	SYNRG	SID131513011	0	6.1	-4.9	17.1
6	KRABD3	SID131503361	0	-10.6	-16.8	-4.4
7	CACNB3	SID131521890	1	15.3	22.3	8.3
8	TJP3P1	SID131521016	1	11.9	19.4	4.4
9	EXOSC1	SID131516159	0	10.4	24.7	-4
10	LOC440046	SID131516618	0	11.2	15.5	6.9
11	EDN2	SID131508635	0	1.3	13.9	-11.3
12	LOC441681	SID131518698	0	24.6	8	41.1
13	PTTG1IP	SID131508103	0	0.6	-0.3	1.6
14	NUS1	SID131502590	-1	-0.4	-14.3	13.5
15	LOC440503	SID131515177	0	8.8	1.3	16.2
16	LOC442698	SID131518366	0	18.7	27.5	9.9
17	ZSCAN18	SID131508965	0	1.7	8	-4.7
18	TBC1D22A	SID131504323	0	-5.7	-0.1	-11.4
19	TMTC3	SID131509800	0	2.5	-2.3	7.4
20	SPG11	SID131503054	0	-14.6	-15.2	-14
21	LOC391088	SID131509908	0	2.7	-6.8	12.1
22	RMDN1	SID131510342	0	3.2	7.3	-1
23	GALNT7	SID131517345	0	13.1	14	12.3
24	LOC389441	SID131516697	0	11.4	-4.2	27.1
25	WDR47	SID131519312	1	4.7	-2.3	11.6
26	RRBP1	SID131501673	-1	-8.2	0.7	-17.2
27	LOC400320	SID131514410	0	7.8	9.7	5.8
28	B4GALT6	SID131519388	1	5.2	15.7	-5.2
29	EYA1	SID131502713	-1	3.3	19.7	-13.1
30	CEP95	SID131508974	0	1.7	6.2	-2.9
31	LOC139263	SID131507608	0	0.1	4.9	-4.8
32	SPAST	SID131507622	0	0.1	3.6	-3.4
33	CERS5	SID131513750	0	7	1.2	12.7
34	DMAC1	SID131512088	0	5.1	2.3	7.9
35	LOC440305	SID131512334	0	5.4	0.5	10.2
36	SMYD3	SID131505528	0	-3	-5	-1
37	MTFR2	SID131511399	0	4.3	4	4.6
38	LOC439973	SID131511701	0	4.6	3.4	5.8
39	PPM1A	SID131521965	1	15.6	8.6	22.6
40	GUCA2A	SID131517714	0	14.5	-18.1	47
41	STRIP1	SID131505563	0	-2.9	-13.3	7.5
42	CCDC9	SID131513499	0	6.7	-5.1	18.4
43	H1-0	SID131508181	0	0.7	2.1	-0.6
44	TOMM40	SID131502313	-1	-3.5	5.8	-12.8
45	LOC402641	SID131507748	0	0.2	6	-5.6
46	GTF3C1	SID131522669	1	21.5	-1.3	44.4
47	REG3G	SID131509516	0	2.2	7.1	-2.6
48	OPTC	SID131506575	0	-1.3	9.7	-12.3
49	PARVG	SID131507147	0	-0.5	-3.9	2.9
50	HCRTR2	SID131512203	0	5.2	3.4	7
51	TRIB2	SID131504049	0	-6.7	-12.3	-1.1
52	SEC22C	SID131508730	0	1.4	-7.3	10
53	LOC392554	SID131517915	0	15.4	27.3	3.4
54	TDP1	SID131500581	-1	-20.7	-17.1	-24.4
55	FATE1	SID131514615	0	8	12.3	3.7
56	HPRT1	SID131513021	0	6.1	7.1	5.1
57	LOC440301	SID131522788	1	24.3	13	35.6

Called active, of those listed so far:
target gene	PubChem SID	two-siRNA summed score (-2 to +2)	mean protection from cisplatin (shift in death) (%)	protection from cisplatin (shift in death), siRNA C (%)	protection from cisplatin (shift in death), siRNA D (%)
ITGA7	SID131500297	-2 (active)	-33.5	-23.6	-43.5
